Assay results as given in publication PMC9863266, “Preclinical Studies and Drug Combination of Low-Cost Molecules for Chagas Disease” (Pharmaceuticals, 2022).

Columns and labels:
Type in all cases: cell-based
[1] = test system: epimastigote form of T. cruzi, Tulahuen 2 strain; experiment: Viability by flow cytometry, CA-AM/IP labeling; details: 20 × IC50
Experimental: Additionally, we evaluated the viability of treated parasites by flow cytometry analysis after incubation with methylated acetoxycalcein (CA-AM) and propidium iodide (IP). […] Since the methodology used to determine the IC50 is based on 5 days of incubation, doses 20 times higher were used to analyze cell viability in shorter times. Similarly, these compounds’ concentrations were used to determine the death mechanism involved at the aforementioned times.
Viability studies of parasites by flow cytometry: The feasibility studies were carried out by evaluating the esterase activity of the parasites using Acetoxymethylated Calcein (CA-AM) and IP (Thermo Fisher Scientific). […] Fluorescence intensity for 10,000 events was acquired from two independent experiments and data were analyzed using BD CSampler software (BD Bioscience).

[2] = test system: Y strain of T. cruzi in the epimastigote form; experiment: Mechanism of death by 1H-NMR
[3] = test system: epimastigote form of T. cruzi, Tulahuen 2 strain; experiment: Mechanism of death by flow cytometry, AV/IP labeling; details: 20 × IC50
Experimental: Parasites were immediately analyzed on an Accuri C6 flow cytometer (BD Bioscience, Franklin Lakes, New Jersey, U.S.). […] Ten thousand events were analyzed for each of the two independent experiments. Data were analyzed using BD CSampler software (BD Bioscience). Untreated parasites were used as a control. For the positive control of apoptosis and necrosis, the parasites were treated with hydrogen peroxide (H2O2) 50 µM and 100 µM for 2.5 h, respectively. These single-spot controls were used to calculate color compensation for flow cytometry.

Row | Compound | Cell death mechanism from CA-AM/IP labeling [1] | Mechanism of death suggested by 1H-NMR [2] | Apparition of the Signal of Choline (3.10–3.30) ppm ([2]; 10 times IC50, control YES) | Cell death mechanism from AV/IP labeling [3] | CH2/CH3 Ratio ([2]; 10 times IC50, control 0.27)
1 | O=C(Cn1ccnc1[N+](=O)[O-])NCc1ccccc1 [Bnz, Benznidazole] | No changes | neither apoptosis nor necrosis characteristic changes | YES |  | 
2 | CC1CS(=O)(=O)CCN1/N=C/c1ccc([N+](=O)[O-])o1 (stereo not shown) [Nfx, Nifurtimox, reference compound] | late apoptosis mechanism | necrosis |  | late apoptotic/necrotic mechanism | 0.25
